Results taken from PubChem BioAssay AID250 (DTP/NCI, 2004).
The list is a part of this screen's results and no random one: it gathers tests that were run many times, whatever their T/C, doses with no T/C, and many T/C values between a quarter and a half above the control. Other doses and runs of a compound stand elsewhere. T/C gives the treated animals as a percentage of the vehicle group. Some entries give survivors of the animals treated and no T/C: the source files T/C as zero there, which appears to mark a toxic dose or a test without result, not a measured value. For some assays here: Counts of survivors are from the toxicity check (mostly the fifth day) where no day follows; animals may have died later. Schedules are NCI's codes, taken here to give the interval after Q, in days (D) or hours (H), and the number of doses after X. Some schedule codes hold Z or #, which are not explained here. Where survival is the endpoint, the PubChem record calls one and a half times the control and up active, and a quarter to a half above the control has no call in these data; cut-offs in other NCI protocols can differ. Some entries were tested several times; their values stand side by side, smallest first. Marks such as (2×) give the number of equal values in this list. Some T/C values carry the count of animals alive at the toxicity check (mostly the fifth day); where none is given, no animal had died by that day.

What was measured:
[1] = test system: BDF1 mice, L1210 leukemia sc, survival T/C; test: NCI In Vivo Anticancer Drug Screen. Data for tumor model L1210 Leukemia (subcutaneous) in B6D2F1 (BDF1) mice; conditions: T/C endpoint: median survival time, higher T/C = longer survival; for T/C: schedule: Q01DX009 (sc), vehicle: water
Procedure, shortened: (§1)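 Expressed as T/C: measurement in compound-treated, tumor-bearing mice relative to vehicle-treated control mice, based on survival or tumor size.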

[2] = test system: BDF1 mice, L1210 leukemia sc; test: as above; conditions: T/C endpoint: median survival time, higher T/C = longer survival
Procedure, shortened: as §1

[3] = dose: 39.0 mg/kg/injection, schedule: Q01DX Z (sc), vehicle: methylcellulose (MC)
[4] = dose: 65.0 mg/kg/injection, schedule: Q01DX Z (sc), vehicle: methylcellulose (MC)
[5] = dose: 180.0 mg/kg/injection, schedule: Q01DX Z (sc), vehicle: methylcellulose (MC)

C[C@]12C=CC(=O)C=C1CC[C@@H]1[C@@H]2C(=O)C[C@@]2(C)[C@H]1CC[C@]2(O)C(=O)CO
survivor count ([1]; dose: 23.0 mg/kg/injection, schedule: Q01DX Z (sc), vehicle: methylcellulose (MC)): 3 of 10
survivor count [1, 3]: 3 of 10
T/C ([1]; dose: 62.5 mg/kg/injection, evaluated on day 7): 106 % of control
T/C ([1]; dose: 62.5 mg/kg/injection, evaluated on day 18): 105 % of control
survivor count [1, 4]: 4 of 10
survivor count ([1]; dose: 108.0 mg/kg/injection, schedule: Q01DX Z (sc), vehicle: methylcellulose (MC)): 5 of 10
T/C ([1]; dose: 125.0 mg/kg/injection, evaluated on day 19): 150 % of control
T/C ([1]; dose: 125.0 mg/kg/injection, evaluated on day 24): 150 % of control
survivor count [1, 5]: 5 of 10
T/C ([1]; dose: 250.0 mg/kg/injection, evaluated on day 7): 161 % of control
T/C ([1]; dose: 250.0 mg/kg/injection, evaluated on day 24): 166 % of control
T/C ([1]; dose: 500.0 mg/kg/injection, evaluated on day 7): 153 % of control
T/C ([1]; dose: 500.0 mg/kg/injection, evaluated on day 24): 155 % of control
T/C ([1]; dose: 1000.0 mg/kg/injection, evaluated on day 7): 150 and 153 % of control
T/C ([1]; dose: 1000.0 mg/kg/injection, evaluated on day 18): 150 % of control
T/C ([1]; dose: 1000.0 mg/kg/injection, evaluated on day 24): 150 % of control
T/C ([2]; dose: 62.5 mg/kg/injection, schedule: Q01DX009 (sc), vehicle: water, evaluated on day 7): 137 % of control
T/C ([2]; dose: 62.5 mg/kg/injection, schedule: Q01DX009 (sc), vehicle: water, evaluated on day 24): 133 % of control
T/C ([2]; dose: 108.0 mg/kg/injection, schedule: Q01DX009 (sc), vehicle: water): 127 and 138 % of control
T/C ([2]; dose: 125.0 mg/kg/injection, schedule: Q01DX009 (sc), vehicle: water, evaluated on day 7): 136 and 147 % of control (2×)
T/C ([2]; dose: 125.0 mg/kg/injection, schedule: Q01DX009 (sc), vehicle: water, evaluated on day 18): 133 % of control
T/C ([2]; dose: 180.0 mg/kg/injection, schedule: Q01DX009 (sc), vehicle: water): 138 % of control
T/C [2, 5]: 130 % of control [7 of 10 alive]
T/C ([2]; dose: 233.0 mg/kg/injection, schedule: Q02DX Z (sc), vehicle: water): 138 % of control
T/C ([2]; dose: 250.0 mg/kg/injection, schedule: Q01DX009 (sc), vehicle: water, evaluated on day 7): 134 and 144 % of control
T/C ([2]; dose: 250.0 mg/kg/injection, schedule: Q01DX009 (sc), vehicle: water, evaluated on day 18): 144 % of control
T/C ([2]; dose: 250.0 mg/kg/injection, schedule: Q01DX009 (sc), vehicle: water, evaluated on day 19): 137 % of control
T/C ([2]; dose: 300.0 mg/kg/injection, schedule: Q01DX009 (sc), vehicle: water): 133 and 144 % of control
T/C ([2]; dose: 300.0 mg/kg/injection, schedule: Q01DX Z (sc), vehicle: methylcellulose (MC)): 130 % of control [7 of 10 alive]
T/C ([2]; dose: 500.0 mg/kg/injection, schedule: Q01DX009 (sc), vehicle: water, evaluated on day 7): 134 and 136 % of control
T/C ([2]; dose: 500.0 mg/kg/injection, schedule: Q01DX009 (sc), vehicle: water, evaluated on day 18): 133 (2×) and 144 % of control
T/C ([2]; dose: 500.0 mg/kg/injection, schedule: Q01DX009 (sc), vehicle: water, evaluated on day 19): 137 % of control
T/C ([2]; dose: 500.0 mg/kg/injection, schedule: Q01DX Z (sc), vehicle: methylcellulose (MC)): 130 % of control [7 of 10 alive]
T/C ([2]; dose: 648.0 mg/kg/injection, schedule: Q02DX Z (sc), vehicle: water): 144 % of control [9 of 10 alive]
T/C ([2]; dose: 833.0 mg/kg/injection, schedule: Q01DX009 (sc), vehicle: water): 127 and 133 % of control
T/C ([2]; dose: 1000.0 mg/kg/injection, schedule: Q01DX009 (sc), vehicle: water, evaluated on day 7): 140 % of control
T/C ([2]; dose: 1000.0 mg/kg/injection, schedule: Q01DX009 (sc), vehicle: water, evaluated on day 19): 143 % of control
T/C ([2]; dose: 1388.0 mg/kg/injection, schedule: Q01DX009 (sc), vehicle: water): 133 and 144 % of control
T/C ([2]; dose: 2000.0 mg/kg/injection, schedule: Q01DX009 (sc), vehicle: water, evaluated on day 7): 128, 133, 144 % of control
T/C ([2]; dose: 2000.0 mg/kg/injection, schedule: Q01DX009 (sc), vehicle: water, evaluated on day 18): 133 % of control
T/C ([2]; dose: 2000.0 mg/kg/injection, schedule: Q01DX009 (sc), vehicle: water, evaluated on day 19): 131 % of control
T/C ([2]; dose: 2000.0 mg/kg/injection, schedule: Q01DX009 (sc), vehicle: water, evaluated on day 24): 144 % of control

CC1CC(C)(O)CC(C(O)CC2CC(=O)NC(=O)C2)C1=O (stereo not given)
survivor count ([1]; dose: 5.18 mg/kg/injection, schedule: Q01DX Z (sc), vehicle: saline): 6 of 10
survivor count ([1]; dose: 8.64 mg/kg/injection, schedule: Q01DX Z (sc), vehicle: saline): 6 of 10
survivor count ([1]; dose: 23.0 mg/kg/injection, schedule: Q01DX001 (sc), vehicle: saline): 0 of 10
survivor count ([1]; dose: 23.0 mg/kg/injection, schedule: Q## X Z (sc), vehicle: saline): 2 of 10
survivor count ([1]; dose: 39.0 mg/kg/injection, schedule: Q01DX001 (sc), vehicle: saline): 0 of 10
survivor count ([1]; dose: 39.0 mg/kg/injection, schedule: Q## X Z (sc), vehicle: saline): 1 of 10
survivor count ([1]; dose: 65.0 mg/kg/injection, schedule: Q01DX001 (sc), vehicle: saline): 0 of 10
T/C ([2]; dose: 0.23 mg/kg/injection, schedule: Q01DX Z (sc), vehicle: saline): 140 % of control
T/C ([2]; dose: 0.39 mg/kg/injection, schedule: Q01DX Z (sc), vehicle: saline): 145 % of control
T/C ([2]; dose: 0.65 mg/kg/injection, schedule: Q01DX Z (sc), vehicle: saline): 130 % of control
T/C ([2]; dose: 3.0 mg/kg/injection, schedule: Q02DX Z (sc), vehicle: saline): 125 % of control
T/C ([2]; dose: 5.0 mg/kg/injection, schedule: Q02DX Z (sc), vehicle: saline): 125 % of control
T/C ([2]; dose: 8.4 mg/kg/injection, schedule: Q01DX001 (sc), vehicle: saline): 130 % of control
T/C ([2]; dose: 14.0 mg/kg/injection, schedule: Q01DX001 (sc), vehicle: saline): 125 % of control [7 of 10 alive]

C1OC1CN1CCC(C2CCN(CC3CO3)CC2)CC1 (stereo not given)
survivor count ([1]; dose: 8.4 mg/kg/injection, schedule: Q01DX Z (sc), vehicle: methylcellulose (MC)): 6 of 10
survivor count ([1]; dose: 8.4 mg/kg/injection, schedule: Q03DX Z (sc), vehicle: methylcellulose (MC)): 5 of 10
survivor count ([1]; dose: 14.0 mg/kg/injection, schedule: Q03DX Z (sc), vehicle: methylcellulose (MC)): 5 of 10
survivor count ([1]; dose: 23.0 mg/kg/injection, schedule: Q03DX Z (sc), vehicle: methylcellulose (MC)): 5 of 10
survivor count [1, 3]: 3 of 10
survivor count ([1]; dose: 39.0 mg/kg/injection, schedule: Q03DX Z (sc), vehicle: methylcellulose (MC)): 5 of 10
survivor count ([1]; dose: 300.0 mg/kg/injection, schedule: Q03DX Z (sc), vehicle: methylcellulose (MC)): 0 of 10
T/C [2, 4]: 127 % of control [8 of 10 alive]
T/C ([2]; dose: 108.0 mg/kg/injection, schedule: Q03DX Z (sc), vehicle: methylcellulose (MC)): 136 % of control
